From patent publication US20060205660A1
Results are given in words; binding and its absence hold for the method and conditions named. Some results given as binding are weak or reduced against the parent protein; the word gives no strength.

Amino acid sequences for entries named in this document (tags omitted). A change or cut given only in a name is not applied to a line headed by its entry. Residues count along the entry.
UniProt P48357, residues 22-1165: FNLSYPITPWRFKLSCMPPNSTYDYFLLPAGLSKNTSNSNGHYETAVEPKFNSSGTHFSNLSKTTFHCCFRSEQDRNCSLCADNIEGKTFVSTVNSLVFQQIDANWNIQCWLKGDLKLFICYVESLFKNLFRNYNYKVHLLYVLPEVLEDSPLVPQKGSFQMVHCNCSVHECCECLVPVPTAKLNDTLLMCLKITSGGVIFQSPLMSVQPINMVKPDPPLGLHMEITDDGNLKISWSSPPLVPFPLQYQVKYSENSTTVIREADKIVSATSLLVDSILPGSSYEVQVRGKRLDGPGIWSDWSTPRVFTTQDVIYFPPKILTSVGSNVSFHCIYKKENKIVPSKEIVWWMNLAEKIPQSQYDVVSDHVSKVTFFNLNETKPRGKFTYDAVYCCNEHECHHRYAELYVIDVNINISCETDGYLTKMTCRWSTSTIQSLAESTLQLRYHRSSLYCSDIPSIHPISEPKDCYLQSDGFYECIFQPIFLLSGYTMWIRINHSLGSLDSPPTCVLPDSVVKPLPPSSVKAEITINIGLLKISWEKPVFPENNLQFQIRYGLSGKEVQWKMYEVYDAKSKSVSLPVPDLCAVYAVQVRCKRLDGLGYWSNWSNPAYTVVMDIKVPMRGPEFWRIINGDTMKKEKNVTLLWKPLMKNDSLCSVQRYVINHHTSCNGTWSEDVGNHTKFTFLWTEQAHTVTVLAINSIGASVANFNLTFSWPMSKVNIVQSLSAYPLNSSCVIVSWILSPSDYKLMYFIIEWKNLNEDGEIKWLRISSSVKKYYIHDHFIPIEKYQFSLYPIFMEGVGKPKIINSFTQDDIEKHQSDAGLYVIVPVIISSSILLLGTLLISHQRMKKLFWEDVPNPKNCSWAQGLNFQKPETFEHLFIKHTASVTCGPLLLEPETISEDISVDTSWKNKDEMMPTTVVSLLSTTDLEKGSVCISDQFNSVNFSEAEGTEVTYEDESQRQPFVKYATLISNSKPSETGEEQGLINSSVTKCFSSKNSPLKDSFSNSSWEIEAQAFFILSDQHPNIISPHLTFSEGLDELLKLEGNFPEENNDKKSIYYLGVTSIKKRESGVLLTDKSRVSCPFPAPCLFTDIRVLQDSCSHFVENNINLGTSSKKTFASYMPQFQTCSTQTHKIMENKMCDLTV
UniProt P41159: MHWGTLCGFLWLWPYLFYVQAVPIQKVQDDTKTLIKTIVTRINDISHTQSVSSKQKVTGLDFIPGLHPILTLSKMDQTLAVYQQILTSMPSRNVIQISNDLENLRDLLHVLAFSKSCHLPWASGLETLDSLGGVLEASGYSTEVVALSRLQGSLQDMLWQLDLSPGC

What was measured:
[1] = target: human OB receptor (human) (UniProt P48357); experiment: panning of transfected COSN cells; competitor of OB-IgG-1
[2] = target: human OB receptor (human) (UniProt P48357); experiment: flow cytometry on 293 cells; competitor of OB-IgG-1

binding [1]: binds | binding [2]: binds
Substance: bacterially expressed human OB protein (from UniProt P41159 22-167) (ligand)
